According to publication PMC6889161, “Inhibitory characteristics of flavonol-3-O-glycosides from Polygonum aviculare L. (common knotgrass) against porcine pancreatic lipase” (Scientific Reports, 2019):

System: T1, pancreatic lipase (PL)
T1 construct: purchased Sigma-Aldrich Co. (St. Louis, MO, USA); host or cells: porcine pancreas (tissue preparation)
Experiment: Circular dichroism of PL secondary structure
Parameters: species or system porcine
Settings: for Change in α-helix content of PL versus control: control 18.7%; for Change in β-turn content of PL versus control: control 20.0%; for Change in antiparallel β-sheet content of PL versus control: control 33.0%

SMILES | Change in α-helix content of PL versus control (compound 200 μM) | Change in α-helix content of PL versus control (compound 400 μM) | Change in β-turn content of PL versus control (compound 200 μM) | Change in antiparallel β-sheet content of PL versus control (compound 200 μM) | Change in β-turn content of PL versus control (compound 400 μM) | Change in antiparallel β-sheet content of PL versus control (compound 400 μM)
O=c1c(O)c(-c2ccc(O)c(O)c2)oc2cc(O)cc(O)c12 [Quercetin] | −0.4% | −0.3% | – | – | – | –
O=c1c(O[C@@H]2O[C@@H](CO)[C@H](O)[C@H]2O)c(-c2ccc(O)c(O)c2)oc2cc(O)cc(O)c12 [Avicularin, quercetin-3-O-α-L-arabinofuranoside] | −0.1% | −0.1% | −0.1% | −0.1% | −0.1% | −0.2%
O=c1c(O)c(-c2ccc(O)cc2)oc2cc(O)cc(O)c12 [Kaempferol] | – | −0.2% | −0.1% | −0.5% | – | –
C[C@@H]1O[C@@H](Oc2c(-c3ccc(O)c(O)c3)oc3cc(O)cc(O)c3c2=O)[C@H](O)[C@H](O)[C@H]1O [Quercitrin, quercetin-3-O-α-L-rhamnopyranoside] | −0.2% | −0.2% | −0.1% | – | −0.1% | –
